In article PMC8876231, “Analogues of Natural Chalcones as Efficient Inhibitors of AKR1C3” (Metabolites, 2022):
The source holds more than one record for some entries. This list holds those alone. An entry can have further records. Results that share an entry differ for a reason that is not stated; dose, time, organism, isomer or construct need not be as stated for each record.

Amino acid sequences for entries named in this document (tags omitted).
UniProt P52895, whole entry: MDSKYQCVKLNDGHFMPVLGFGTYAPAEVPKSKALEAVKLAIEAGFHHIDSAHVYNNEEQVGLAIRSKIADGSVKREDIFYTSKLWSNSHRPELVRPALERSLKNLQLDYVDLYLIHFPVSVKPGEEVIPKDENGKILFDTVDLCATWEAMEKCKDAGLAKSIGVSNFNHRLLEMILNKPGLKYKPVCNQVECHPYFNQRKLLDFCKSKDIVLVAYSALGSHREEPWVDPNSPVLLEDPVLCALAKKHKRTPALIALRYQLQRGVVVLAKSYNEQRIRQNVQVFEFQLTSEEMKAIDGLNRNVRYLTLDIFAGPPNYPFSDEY

Target: AKR1C2 (Homo sapiens, UniProt P52895)
Test: AKR1C2 inhibition assay (DHT to 3α-androstanediol)
Conditions: 10 µM compound; mean ± SD
Excerpt: For enzymatic assays and inhibitor testing, all enzymes were cloned into bacterial or mammalian expression vectors. AKR1C3 and the human hydroxysteroid dehydrogenases HSD17B1, HSD17B2, HSD17B4 (SDR domain), HSD17B7, and HSD17B10 were cloned into a pGEX vector as described in [71, 72]. The coding sequences for AKR1C1, AKR1C2, and AKR1C4 were cloned by Gateway technology into the pcDNA3-N-MycDest vector according to the manufacturer’s instructions (Life Technologies, Carlsbad, CA, USA). The p11 plasmid coding for HSD17B14 (S205 variant) was a gift from Udo Opperman SGC Oxford, UK. For assays with HSD17B3, HEK293 cells stably expressing HSD17B3 were used. Enzymes were expressed in E. coli BL21 DE3 or E. coli BL21 DE3 Codon Plus RP (Stratagene, San Diego, CA, USA) or in HEK293 cells as described in [71, 72, 73]. Bacterial and cell pellets were stored at −20 °C and −80 °C, respectively, until use.
Inhibition assays were carried out as described in [71, 74]. […] Radioactivity was detected by online scintillation counting by using a radioactivity monitor (LB506D, Berthold Technologies, Bad Wildbad, Germany). Conversion of substrates to products was determined by integration of the peak area of the substrate and product peaks in percent. […]

| Compound | Inhibition of AKR1C2 at 10 µM in % |
| --- | --- |
| COc1ccc(/C=C/C(=O)c2c(O)cc(O)cc2O)cc1 [Compound 19] | 38.5 ± 1.3% and not more than 42.3% |
| Cc1cccc(/C=C/C(=O)c2c(O)cc(O)cc2O)c1 [Compound 20] | 39.9 ± 4.0% and not more than 42.3% |
